Laboratory results: PubChem BioAssay AID504444 (National Center for Advancing Translational Sciences (NCATS), 2011)
Hit rate of the full screen: of about 360,000 compounds, about 7,500 (2.1%) were called active. The inconclusive results got no clear call from the source; some entries with a clear call stand among them for comparison. The call rests on the fitted dose curve; in most records, active means well fitted inhibition curve with a large enough effect; inconclusive means small, poorly fitted or top-dose-only effect, or effect the other way; inactive means flat fitted curve, though single readings scatter. Potencies of inconclusive entries are doubtful fits and often do not repeat.
On the % scale 0 is the no-effect control and ±100 the full control effect; potency means the concentration at half of the fitted maximal effect.

Test: Nrf2 qHTS screen for inhibitors; further: nearly all actives have a fitted effect of over 60% in size
Conditions: A549 ARE-Fluc reporter, luciferase luminescence, 18-24 h; activity change, negative = inhibition: at 46 µM (top of the series)
Outline: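 A549 ARE_Fluc cells, 5000/well, 5% FBS OPTI-MEM; compounds in dose-response, 18-24 h at 37 °C/5% CO2; CellTiter-Fluor viability read (Ex 405/Em 525), then BugLite luciferase luminescence = Nrf2 activity.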
With `O=C(NCCCN1CCCC1=O)c1cccc(S(=O)(=O)N2CCN(c3ccc(F)cc3)CC2)c1` the Potency was inconclusive: 5.8 µM [falling, partial curve, poor fit].
For `O=C(CSc1ccccc1Cl)c1ccco1`, the Potency was inconclusive: 2.59 µM [activator, full curve, poor fit].
With `CCOc1ccc(CNC(=O)Cn2ccc3cc(S(=O)(=O)N4CCCCC4)ccc32)cc1` the Potency was inconclusive: 29.1 µM [falling, single point].
For `Cc1ccc(C(=O)C=Cc2cccc(C)c2)cc1`, the Potency was inconclusive: 20.6 µM [activator, single point].
In the case of `COc1ccc(C2/C=C\CN(C(=O)c3ccccc3)[C@H](Cc3ccccc3)C(=O)N2Cc2ccc(F)cc2)cc1` (some centres not stated), the Potency is reported as inconclusive: 20.6 µM [falling, single point].
For `O=C(NCc1ccccn1)c1ccc(Cn2c(=S)[nH]c3ccc(Br)cc3c2=O)cc1`, the Potency was inconclusive: 29.1 µM [falling, single point].
For `O=C(/C=C\c1ccco1)Nc1cc([N+](=O)[O-])ccc1F`, the Potency was inconclusive: 18.4 µM [activator, single point].
In the case of `Oc1c(Br)cc(Br)cc1CNc1cnc2ccccc2c1`, the Potency is reported as inconclusive: 11.6 µM [falling, partial curve, poor fit].
With `CC1(C)CC(=O)C=C(c2ccc(-c3ccccc3)cc2)C1` the Potency was inconclusive: 5.8 µM [activator, full curve].
For `CCOc1ccc2nc(N3CCCC(C(=O)NCCCN4CC(C)CC(C)C4)C3)sc2c1` (configuration not stated), the Potency was inconclusive: 5.17 µM [activator, full curve, poor fit].
In the case of `O=C(O)c1cc(N=Nc2c(O)ccc3ccccc23)cc(C(=O)O)c1`, the “activity change, negative = inhibition” value is reported as inactive: 7%.
For `CN1C(=O)C(C)(C)c2cc(S(=O)(=O)N3CCCC3C(=O)Nc3ccc(F)cc3)ccc21` (configuration not stated), the Potency was inconclusive: 20.6 µM [falling, single point].
In the case of `COc1ccc(C(=S)N2CCOCC2)cc1OC(=O)c1ccc([N+](=O)[O-])cc1`, the “activity change, negative = inhibition” value is reported as inactive: 5.31%.
In the case of `COc1cc2c(cc1NC(=O)C(C)N1CCN(S(=O)(=O)c3ccc(C)c(C)c3)CC1)oc1ccccc12` (configuration not stated), the Potency is reported as inconclusive: 10.3 µM [activator, single point].
For `CCCCOC(=O)c1cccc(NC(=O)/C=C/c2ccccc2Cl)c1`, the Potency was active: 20.6 µM.
For `COc1ccc([C@H]2CC(=O)C=C(/C=C/c3ccc(C(F)(F)F)cc3)C2)cc1`, the “activity change, negative = inhibition” value was inactive: 6.02%.
For `O=C(O)C1=CC[C@@H](c2ccc(Cl)cc2)N(S(=O)(=O)c2ccc(Cl)cc2)[C@H]1c1cccc(Cl)c1`, the Potency was inconclusive: 29.1 µM [falling, single point].
